{"sequences": {"note": "By UniProt entry, the sequences of proteins in these tests, tags left out. Residues count along the entry.", "UniProt P19352, 1-284 isoform P19352-2": "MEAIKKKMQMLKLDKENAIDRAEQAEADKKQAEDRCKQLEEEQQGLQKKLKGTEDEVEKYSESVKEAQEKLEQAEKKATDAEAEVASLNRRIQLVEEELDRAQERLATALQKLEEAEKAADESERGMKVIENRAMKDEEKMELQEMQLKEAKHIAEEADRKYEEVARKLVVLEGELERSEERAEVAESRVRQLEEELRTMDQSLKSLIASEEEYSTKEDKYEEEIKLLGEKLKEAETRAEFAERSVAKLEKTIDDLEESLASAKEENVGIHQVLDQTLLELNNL"}, "source": "patent US20050124794A1", "about": "“Cell surface tropomyosin as a target of angiogenesis inhibition” (priority 2002, published 2005)", "key": {"chicken gizzard Tpm": {"molecular_target": "T1, chicken gizzard Tpm (Gallus gallus, UniProt P19352)", "T1 construct": "purchased Sigma; host or cells: chicken gizzard (tissue-derived, as the name says)", "assay": "Binding to immobilized Tpm in a 96 well plate (biotin-HKa competition or direct binding)", "details": "for IC50: displacement of 10 nM biotinylated-HKa; for IC50 / binding to immobilized Tpm / displacement of biotin-HKa (in words): 10 μM ZnCl2; for binding to immobilized Tpm / displacement of biotin-HKa (in words): 10 nM biotin-HKa, 200 ng chicken gizzard Tpm", "procedure": "Plates are coated at room temperature with chicken gizzard Tpm (Sigma) in Tris buffer-saline (TBS) (200 ng/well). After incubation for 2 hours, wells are washed with TBS, then 1% BSA/TBS/Tween-20 is added to each well and incubate at 37° C. for two hours. HKa (Enzyme Laboratories) that had been previously biotinylated with EZ-Link (Pierce) according to the manufacturers instructions, is added to the plate at a concentration of 10 nM together with ZnCl2 (10 μM) and the appropriate concentration of the protein, domain or peptide competitor. The plates are incubated at room temperature and then washed with TBS/Tween-20. Avidin-HRP is added, incubated for 20 minutes at room temperature, washed with TBS/Tween-20 and the chromogenic substrate is added. The reaction is stopped with sulfuric acid and the plate read at 490 nm.\nThe IC50 for the displacement of biotinylated-HKa for the peptides shown in Table 5 was determined as follows: 10 nM biotin-HKa is added to a 96 well plate previously coated with 200 ng of chicken gizzard Tpm in the presence of 10 μM ZnCl2. Increasing amounts of the peptides are added to the wells. The remaining biotin-HKa bound to Tpm was detected using avidin-HRP and a chromogenic substrate. A Kd was determined by non-linear regression analysis of the empirical data. The effect on the Matrigel Plug assay was determined as follows: Matrigel (0.5 mL) containing 400 ng/ml of bFGF, 50 μg/ml heparin with or without the peptide (300 μM) or saline buffer are injected in the flanks of a mouse. After five days, the plugs are removed and the plugs scanned.\nThe N-terminus of the pentapeptide HHPHG has been derivatized (capped) in an attempt to increase the pentapeptides' affinity to Tpm by increasing productive molecular contacts (or interactions). […] The IC50 for the displacement of biotinylated-HKa for the capped peptides shown in the table was determined as follows: 10 nM biotin-HKa was added to a 96 well plate previously coated with 200 ng of chicken gizzard Tpm in the presence of 10 μM ZnCl2. Increasing amounts of the peptides were added to the wells. The remaining biotin-HKa bound to Tpm was detected using avidin-HRP and a chromogenic substrate. A Kd was determined by non-linear regression analysis of the empirical data"}, "[1]": {"test_system": "bFGF-induced angiogenesis", "assay": "Matrigel plug assay (bFGF-induced angiogenesis)", "assay_type": "in vivo, mouse", "details": "400 ng/ml bFGF, five days, plugs scanned; for Inhibits Angiogenesis (Matrigel ® assay): peptide 300 μM, 50 μg/ml heparin", "procedure": "This assay is performed essentially as described by Passaniti et al. (Lab Invest. 67:519-528 (1992). Ice-cold Matrigel® (e.g., 500 μL) (Collaborative Biomedical Products, Inc., Bedford, Mass.) is mixed with heparin (e.g., 50 μg/ml), FGF-2 (e.g., 400 ng/ml) and the compound to be tested. In some assays, bFGF may be substituted with tumor cells as the angiogenic stimulus. The Matrigel® mixture is injected subcutaneously into 4-8 week-old athymic nude mice at sites near the abdominal midline, preferably 3 injections per mouse. The injected Matrigel® forms a palpable solid gel. Injection sites are chosen such that each animal receives a positive control plug (such as FGF-2+heparin), a negative control plug (e.g., buffer+heparin) and a plug that includes the compound being tested for its effect on angiogenesis, e.g., (FGF-2+heparin+compound). All treatments are preferably run in triplicate. Animals are sacrificed by cervical dislocation at about 7 days post injection or another time that may be optimal for observing angiogenesis. […] Hemoglobin (Hb) levels are determined using Drabkin's solution (e.g., obtained from Sigma) according to the manufacturers' instructions. […] The amount of fluorescence in the dispersed plug, determined fluorimetrically, also serves as a measure of angiogenesis in the plug. […]\nThese cyclic peptides were also tested for their ability to inhibit bFGF-induced angiogenesis in vivo in a Matrigel plug assay. Matrigel (0.5 mL) containing 400 ng/ml of bFGF, 50 μg/ml heparin with or without 10 μM peptide (ATN-310, ATN-311 or ATN-312 or saline buffer for the controls, was injected subcutaneously in the hind flanks of a mouse as described above. All the treatments were done in triplicate. After five days, the vascularization of the Matrigel plug was determined fluorometrically after i.v. injection of 100 μl of dextran conjugated with fluorescein isothiocyanate (FITC-dextran; MW 250,000, Sigma). Five days after injection, the plugs were removed and subjected to mincing of tissue which releases vascular FITC-dextran into the supernatant. […]"}}, "note": "Not every detail of the peptide structures is certain; ends, links or a residue may be inferred. For part of these data: At least one structure is not confirmed: it was looked up by name or label, or the drawing left a doubt. Ends that are not written are not given here. Peptide text beside a SMILES is read from it. * marks the point of attachment. X2 = CC1(C)[C@@H]2CC[C@@]1(CS(=O)(=O)*)C(=O)C2", "data": [{"compound": "CC1(C)[C@@H]2CC[C@@]1(CS(=O)(=O)N[C@@H](Cc1c[nH]cn1)C(=O)N[C@@H](Cc1c[nH]cn1)C(=O)N1CCC[C@H]1C(=O)N[C@@H](Cc1c[nH]cn1)C(=O)NCC(=O)O)C(=O)C2", "note": "[ATN-275.000.01, (1S)-(+)-camphorsulphonyl] (X2-HHPHG-OH)", "values": [{"measurement": "IC50", "setting": "chicken gizzard Tpm; Table 6, N-capped HHPHG peptides", "result": 30, "unit": "µM"}]}, {"compound": "APPHG [ATN246, APPHG]", "values": [{"measurement": "inhibition of angiogenesis in the Matrigel plug model (in words)", "setting": "[1]; 20 μg peptide", "result": "not"}, {"measurement": "Inhibits Angiogenesis (Matrigel ® assay)", "setting": "[1]", "result": "No"}, {"measurement": "Inhibits Angiogenesis (Matrigel ® assay)", "setting": "[1]; listed as APPHG", "result": "complete loss"}, {"measurement": "binding to immobilized Tpm / displacement of biotin-HKa (in words)", "setting": "chicken gizzard Tpm; listed as APPHG", "result": "complete loss"}, {"measurement": "binding to immobilized Tpm / displacement of biotin-HKa (in words)", "setting": "chicken gizzard Tpm; listed as ATN-246", "result": "did not"}]}, {"compound": "HHPHG [ATN230, HHPHG]", "values": [{"measurement": "IC50", "setting": "chicken gizzard Tpm; Table 5", "result": 121, "unit": "µM"}, {"measurement": "Kd", "setting": "chicken gizzard Tpm; read-out: affinity of binding to Tpm", "result": "~100", "unit": "µM"}]}, {"compound": "HPPHG [ATN228, HPPHG]", "values": [{"measurement": "IC50", "setting": "chicken gizzard Tpm; Table 5", "result": 150, "unit": "µM"}]}]}
